PubChem BioAssay AID1159590, NIAID – 2016

Screen: 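Effect of gene knock-down on p65 moving into nuclei after TLR2 stimulation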
Cell system: mouse RAW264.7 macrophage reporter cells expressing GFP-p65 and a Tnf promoter-mCherry
Knock-down reagent: single siRNA against mouse genes
Timing: 48 to 72 hours after siRNA transfection, then 40 minutes of ligand
Treatment: Pam3CSK4 (TLR2/1 agonist) for 40 minutes before fixation; dose not given
Measurement: 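p65 nuclear translocation measured by high-content imaging, shown for each siRNA as a robust z-score averaged across replicates, relative to negative controls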
Reading the numbers: p65 nuclear entry z-score: higher = more p65 moved into nuclei than in negative-control wells
Rule for the call: In these data the active calls have p65 nuclear entry z-score, replicate mean at about -1.5 or lower, or at about 1.5 or higher
Calls: active = strong change, up or down; inactive = little change
Here is one part, drawn at random, of 756 reagents tested. In the full data, 128 (17%) are marked active. 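Calls are two-sided: both reduced and increased p65 nuclear entry count as active.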 Unmarked entries are inactive. Reagents against one gene are numbered here. No sequences are given here. Not given: the amount of reagent.

p65 nuclear entry z-score, replicate mean, by gene and reagent
Dusp2: #1 -0.406; #2 -2.07 (active); #3 -0.187; #4 -0.329; #5 0.613; #6 -1.21
Nfkbib: #1 -1.18; #2 -0.314; #3 0.531; #4 0.253; #5 12.3 (active); #6 -0.55
Cd180: #1 -0.997; #2 0.425; #3 1.2; #4 -0.379; #5 -0.742; #6 -0.802
Nfkbia: #1 -1.77 (active); #2 -3.11 (active); #3 -1.62 (active); #4 0.0381; #5 -1.5; #6 -0.952

Looked up above.
Nfkbia #6, p65 nuclear entry z-score, replicate mean: -0.952
For “p65 nuclear entry z-score, replicate mean”, Dusp2 #5 is entered as 0.613

Next reagents follow:
p65 nuclear entry z-score, replicate mean, by gene and reagent
Ifnb1: #1 1.7 (active); #2 0.296; #3 -1.55 (active); #4 0.676; #5 -0.894; #6 -0.426
Relb: #1 -0.68; #2 0.0281; #3 -2.33 (active); #4 -0.364; #5 1.47; #6 -0.685
Irak1: #1 -1.38; #2 0.458; #3 -1.55 (active); #4 -1.15; #5 -0.499; #6 1.42
Tab1: #1 -0.348; #2 -0.496; #3 -0.258; #4 -0.527; #5 -0.902; #6 0.0371
